Assay results from the supplement of paper PMC12819154, “High-throughput peptide-centric local stability assay extends protein–ligand identification to membrane proteins, tissues and bacteria” (Nature Structural & Molecular Biology, 2025).
Some of the results follow. Most values lie at the level of the controls, where differences are scatter.

Sequences of proteins named here, by UniProt entry; tags and fusion partners are left off. A change or cut given only in a name is not applied to a line headed by its entry.
UniProt P19367: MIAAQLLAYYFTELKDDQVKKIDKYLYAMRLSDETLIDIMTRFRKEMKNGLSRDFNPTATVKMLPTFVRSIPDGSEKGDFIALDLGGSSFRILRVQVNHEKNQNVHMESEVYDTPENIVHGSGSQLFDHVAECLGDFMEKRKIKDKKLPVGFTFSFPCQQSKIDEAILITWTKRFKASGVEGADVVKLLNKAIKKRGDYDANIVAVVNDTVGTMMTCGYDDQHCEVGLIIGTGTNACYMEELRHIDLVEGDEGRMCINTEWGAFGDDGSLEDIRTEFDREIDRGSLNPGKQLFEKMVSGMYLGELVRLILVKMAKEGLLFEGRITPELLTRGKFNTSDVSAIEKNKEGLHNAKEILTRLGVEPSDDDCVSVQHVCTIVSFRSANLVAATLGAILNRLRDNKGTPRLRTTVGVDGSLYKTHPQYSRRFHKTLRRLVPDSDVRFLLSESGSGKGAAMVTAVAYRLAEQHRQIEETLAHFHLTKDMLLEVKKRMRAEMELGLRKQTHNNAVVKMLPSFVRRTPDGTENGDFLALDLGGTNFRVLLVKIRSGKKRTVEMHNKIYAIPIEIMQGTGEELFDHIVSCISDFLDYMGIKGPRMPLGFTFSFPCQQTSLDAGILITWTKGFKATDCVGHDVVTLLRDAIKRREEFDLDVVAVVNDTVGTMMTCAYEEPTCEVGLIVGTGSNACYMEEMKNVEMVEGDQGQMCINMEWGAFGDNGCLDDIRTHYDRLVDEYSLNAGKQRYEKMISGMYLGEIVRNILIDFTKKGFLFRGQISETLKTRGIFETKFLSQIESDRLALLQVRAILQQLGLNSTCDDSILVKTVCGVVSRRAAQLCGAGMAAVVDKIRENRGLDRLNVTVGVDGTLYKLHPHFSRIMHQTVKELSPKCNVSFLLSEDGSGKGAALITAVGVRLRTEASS
UniProt P16402, whole entry: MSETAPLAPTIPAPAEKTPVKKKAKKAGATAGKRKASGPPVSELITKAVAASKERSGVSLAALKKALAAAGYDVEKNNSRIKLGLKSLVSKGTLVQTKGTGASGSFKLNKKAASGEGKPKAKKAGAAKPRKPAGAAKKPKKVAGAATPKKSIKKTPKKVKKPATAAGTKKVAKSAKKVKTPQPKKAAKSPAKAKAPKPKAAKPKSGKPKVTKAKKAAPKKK
UniProt P15170, whole entry: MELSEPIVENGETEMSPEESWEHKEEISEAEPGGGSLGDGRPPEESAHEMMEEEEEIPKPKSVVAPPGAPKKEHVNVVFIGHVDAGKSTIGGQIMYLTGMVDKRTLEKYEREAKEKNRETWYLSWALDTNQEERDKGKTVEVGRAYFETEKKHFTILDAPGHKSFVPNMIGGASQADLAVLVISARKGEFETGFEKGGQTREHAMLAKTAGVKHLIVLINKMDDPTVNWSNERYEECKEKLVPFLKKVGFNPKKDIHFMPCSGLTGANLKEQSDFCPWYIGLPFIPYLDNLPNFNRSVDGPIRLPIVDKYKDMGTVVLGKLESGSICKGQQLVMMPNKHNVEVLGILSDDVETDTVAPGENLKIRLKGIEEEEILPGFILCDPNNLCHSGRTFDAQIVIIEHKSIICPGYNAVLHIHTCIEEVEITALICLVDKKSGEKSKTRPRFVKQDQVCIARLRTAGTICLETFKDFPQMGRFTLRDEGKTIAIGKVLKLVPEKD
UniProt P21291: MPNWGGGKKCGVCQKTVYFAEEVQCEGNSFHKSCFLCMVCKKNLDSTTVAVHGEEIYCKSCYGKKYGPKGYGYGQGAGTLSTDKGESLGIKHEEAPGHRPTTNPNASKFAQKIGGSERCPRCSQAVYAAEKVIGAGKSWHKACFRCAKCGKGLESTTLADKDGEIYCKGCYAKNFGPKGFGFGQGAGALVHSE
UniProt P17017: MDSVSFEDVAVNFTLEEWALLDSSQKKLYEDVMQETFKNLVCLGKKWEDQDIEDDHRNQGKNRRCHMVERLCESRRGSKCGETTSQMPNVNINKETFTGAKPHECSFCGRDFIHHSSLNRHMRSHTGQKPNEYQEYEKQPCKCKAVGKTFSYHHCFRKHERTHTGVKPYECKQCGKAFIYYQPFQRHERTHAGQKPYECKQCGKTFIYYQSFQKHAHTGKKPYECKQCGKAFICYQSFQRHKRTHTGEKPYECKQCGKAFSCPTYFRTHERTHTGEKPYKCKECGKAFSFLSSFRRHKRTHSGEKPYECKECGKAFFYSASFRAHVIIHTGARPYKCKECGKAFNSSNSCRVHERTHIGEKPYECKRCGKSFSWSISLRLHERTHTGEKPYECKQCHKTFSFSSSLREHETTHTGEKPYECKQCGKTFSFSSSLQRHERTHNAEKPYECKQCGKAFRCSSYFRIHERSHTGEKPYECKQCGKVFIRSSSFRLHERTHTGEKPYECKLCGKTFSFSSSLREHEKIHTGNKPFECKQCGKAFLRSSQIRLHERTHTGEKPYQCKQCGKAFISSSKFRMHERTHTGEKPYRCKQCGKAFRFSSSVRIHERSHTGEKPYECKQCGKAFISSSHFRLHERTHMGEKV
UniProt P22532: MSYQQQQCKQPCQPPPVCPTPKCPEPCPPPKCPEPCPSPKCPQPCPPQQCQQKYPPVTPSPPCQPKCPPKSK
UniProt P22307: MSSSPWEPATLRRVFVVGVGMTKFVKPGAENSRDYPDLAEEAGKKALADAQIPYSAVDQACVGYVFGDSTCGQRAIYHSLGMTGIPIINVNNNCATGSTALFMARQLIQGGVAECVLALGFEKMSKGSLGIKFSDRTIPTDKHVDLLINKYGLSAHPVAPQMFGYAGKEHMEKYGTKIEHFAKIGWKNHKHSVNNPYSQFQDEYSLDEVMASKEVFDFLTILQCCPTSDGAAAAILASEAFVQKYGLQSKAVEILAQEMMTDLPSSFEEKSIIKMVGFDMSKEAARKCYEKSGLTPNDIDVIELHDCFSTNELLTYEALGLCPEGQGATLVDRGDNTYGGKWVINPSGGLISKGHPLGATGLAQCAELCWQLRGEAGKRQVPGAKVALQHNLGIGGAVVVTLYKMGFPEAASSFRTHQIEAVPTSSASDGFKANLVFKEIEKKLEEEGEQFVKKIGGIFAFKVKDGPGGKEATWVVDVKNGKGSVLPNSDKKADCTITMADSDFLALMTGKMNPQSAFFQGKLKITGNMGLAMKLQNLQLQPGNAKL
UniProt P22612, whole entry, looked up: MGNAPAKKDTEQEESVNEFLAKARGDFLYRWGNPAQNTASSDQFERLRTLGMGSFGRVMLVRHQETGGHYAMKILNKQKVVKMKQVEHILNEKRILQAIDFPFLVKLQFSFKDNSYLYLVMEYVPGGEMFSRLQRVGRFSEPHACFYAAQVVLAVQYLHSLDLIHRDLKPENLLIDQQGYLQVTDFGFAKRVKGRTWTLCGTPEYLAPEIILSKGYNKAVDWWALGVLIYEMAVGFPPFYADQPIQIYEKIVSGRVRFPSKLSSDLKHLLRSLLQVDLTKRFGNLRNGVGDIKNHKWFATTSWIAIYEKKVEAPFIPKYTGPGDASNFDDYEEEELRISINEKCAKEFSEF
UniProt P18858, whole entry: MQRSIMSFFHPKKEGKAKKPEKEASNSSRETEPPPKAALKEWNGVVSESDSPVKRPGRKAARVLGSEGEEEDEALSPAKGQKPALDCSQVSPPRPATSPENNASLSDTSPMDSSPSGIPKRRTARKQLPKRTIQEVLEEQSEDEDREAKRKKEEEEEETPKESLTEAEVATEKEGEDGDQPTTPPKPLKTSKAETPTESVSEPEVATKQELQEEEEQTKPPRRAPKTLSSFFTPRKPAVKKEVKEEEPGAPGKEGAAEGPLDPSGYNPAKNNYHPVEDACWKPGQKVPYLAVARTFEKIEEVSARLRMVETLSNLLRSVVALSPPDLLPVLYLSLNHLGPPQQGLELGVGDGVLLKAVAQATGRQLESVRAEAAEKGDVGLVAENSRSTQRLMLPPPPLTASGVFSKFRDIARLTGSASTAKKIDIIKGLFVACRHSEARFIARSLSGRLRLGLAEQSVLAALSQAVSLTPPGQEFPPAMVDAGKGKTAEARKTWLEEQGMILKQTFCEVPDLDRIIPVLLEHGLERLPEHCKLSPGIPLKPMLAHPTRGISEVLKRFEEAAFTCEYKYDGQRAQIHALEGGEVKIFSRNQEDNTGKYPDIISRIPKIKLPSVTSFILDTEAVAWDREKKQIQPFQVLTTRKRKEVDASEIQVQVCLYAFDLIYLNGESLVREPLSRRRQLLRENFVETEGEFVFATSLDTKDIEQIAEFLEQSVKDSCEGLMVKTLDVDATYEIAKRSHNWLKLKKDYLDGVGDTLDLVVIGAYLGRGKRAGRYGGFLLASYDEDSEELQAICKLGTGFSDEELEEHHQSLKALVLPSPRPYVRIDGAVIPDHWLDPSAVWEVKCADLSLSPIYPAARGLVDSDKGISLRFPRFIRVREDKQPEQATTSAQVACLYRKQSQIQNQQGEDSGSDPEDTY
UniProt P19525: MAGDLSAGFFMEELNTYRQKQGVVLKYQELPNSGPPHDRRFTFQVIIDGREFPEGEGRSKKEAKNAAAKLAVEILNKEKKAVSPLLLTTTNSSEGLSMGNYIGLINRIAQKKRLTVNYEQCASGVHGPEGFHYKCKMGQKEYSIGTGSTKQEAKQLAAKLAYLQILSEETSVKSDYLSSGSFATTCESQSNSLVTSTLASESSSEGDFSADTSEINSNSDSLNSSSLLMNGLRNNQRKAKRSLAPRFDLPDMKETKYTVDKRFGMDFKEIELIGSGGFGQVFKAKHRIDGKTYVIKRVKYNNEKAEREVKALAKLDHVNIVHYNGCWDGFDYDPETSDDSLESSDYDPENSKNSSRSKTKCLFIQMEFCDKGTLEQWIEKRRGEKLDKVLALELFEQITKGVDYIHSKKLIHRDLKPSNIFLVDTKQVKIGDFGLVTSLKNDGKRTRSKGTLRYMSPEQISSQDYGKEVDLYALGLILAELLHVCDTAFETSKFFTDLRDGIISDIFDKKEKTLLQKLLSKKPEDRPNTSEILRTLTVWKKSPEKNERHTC
UniProt P18669: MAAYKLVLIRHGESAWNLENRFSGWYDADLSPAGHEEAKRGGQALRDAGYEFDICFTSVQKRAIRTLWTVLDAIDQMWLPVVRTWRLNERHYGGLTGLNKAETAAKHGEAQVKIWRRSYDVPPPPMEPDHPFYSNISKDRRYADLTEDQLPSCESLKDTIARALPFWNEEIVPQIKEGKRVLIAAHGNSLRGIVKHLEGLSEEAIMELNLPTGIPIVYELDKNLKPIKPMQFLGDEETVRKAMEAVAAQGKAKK
UniProt P16150: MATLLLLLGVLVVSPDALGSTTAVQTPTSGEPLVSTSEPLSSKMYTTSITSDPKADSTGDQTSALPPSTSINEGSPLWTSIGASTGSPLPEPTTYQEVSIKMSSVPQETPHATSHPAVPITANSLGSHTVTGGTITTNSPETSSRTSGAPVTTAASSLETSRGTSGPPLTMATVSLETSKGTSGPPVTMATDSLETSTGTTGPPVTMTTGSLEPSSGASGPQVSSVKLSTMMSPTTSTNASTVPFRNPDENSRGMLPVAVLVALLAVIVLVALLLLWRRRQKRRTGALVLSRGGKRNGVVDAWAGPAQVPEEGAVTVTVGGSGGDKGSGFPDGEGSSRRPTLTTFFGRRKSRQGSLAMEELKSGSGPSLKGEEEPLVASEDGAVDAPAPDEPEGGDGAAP
UniProt P22415: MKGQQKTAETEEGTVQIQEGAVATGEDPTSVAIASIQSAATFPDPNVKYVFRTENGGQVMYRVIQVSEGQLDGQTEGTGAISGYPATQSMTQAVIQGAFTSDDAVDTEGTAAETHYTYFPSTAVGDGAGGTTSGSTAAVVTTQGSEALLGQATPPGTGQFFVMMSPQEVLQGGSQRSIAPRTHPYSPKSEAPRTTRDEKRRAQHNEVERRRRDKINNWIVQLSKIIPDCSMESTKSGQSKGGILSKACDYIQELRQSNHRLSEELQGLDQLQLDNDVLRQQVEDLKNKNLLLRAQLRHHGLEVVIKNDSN
UniProt P15927: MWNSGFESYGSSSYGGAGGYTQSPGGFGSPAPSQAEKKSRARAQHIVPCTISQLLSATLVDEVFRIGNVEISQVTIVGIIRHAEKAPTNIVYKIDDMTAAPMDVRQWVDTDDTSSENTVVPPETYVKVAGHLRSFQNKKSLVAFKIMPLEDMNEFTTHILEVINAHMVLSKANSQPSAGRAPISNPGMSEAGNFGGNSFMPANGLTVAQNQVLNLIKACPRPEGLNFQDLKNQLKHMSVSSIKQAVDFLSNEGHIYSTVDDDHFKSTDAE
UniProt P15529: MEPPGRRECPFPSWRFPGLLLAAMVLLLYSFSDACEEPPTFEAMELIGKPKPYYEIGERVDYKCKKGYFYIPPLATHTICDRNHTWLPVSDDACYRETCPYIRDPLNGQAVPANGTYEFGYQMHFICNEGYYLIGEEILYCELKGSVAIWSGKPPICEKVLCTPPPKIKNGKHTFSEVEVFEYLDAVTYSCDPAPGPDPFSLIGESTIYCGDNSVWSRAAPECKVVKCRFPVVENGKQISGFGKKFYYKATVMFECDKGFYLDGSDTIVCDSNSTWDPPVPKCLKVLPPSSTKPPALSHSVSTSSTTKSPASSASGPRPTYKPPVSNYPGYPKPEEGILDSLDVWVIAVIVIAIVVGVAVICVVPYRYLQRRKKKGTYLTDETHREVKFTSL

The targets below were run with Cc1nc(Nc2ncc(C(=O)Nc3c(C)cccc3Cl)s2)cc(N2CCN(CCO)CC2)n1 [dasatinib] (assay: log2 fold change of tryptic peptide abundance, ligand vs vehicle (limited proteolysis) (log2 ratio); higher = more trypsin-susceptible (destabilized)). Conditions: ligand concentration: 5 uM; sample: K562 cleared lysate.

“GOT1 (peptide sequence: TDDCHPWVLPVVK, peptide start residue: 43) (UniProt P17174)” was tested. Which log2 fold change did it give?
Its log2 fold change is -0.309.

Which log2 fold change does the source give for “CFL1 (peptide sequence: AVLFCLSEDK, peptide start residue: 35) (UniProt P23528)” here?
Its log2 fold change is 0.102.

For “HK1 (peptide sequence: GKFNTSDVSAIEKNK, peptide start residue: 332) (UniProt P19367)”, which log2 fold change is on record?
The log2 fold change was 0.861.

Which log2 fold change does the source give for “HIST1H1D (peptide sequence: KASGPPVSELITK, peptide start residue: 34) (UniProt P16402)” here?
Its log2 fold change is 0.0716.

For “SON (peptide sequence: QPEESESK, peptide start residue: 132) (UniProt P18583)”, which log2 fold change is on record?
The log2 fold change was 0.342.

With “CBL (peptide sequence: KSSGAGGGSGSGGSGSGGLIGLMK, peptide start residue: 7) (UniProt P22681)” as the target, how does the log2 fold change read?
The log2 fold change was -0.581.

Which log2 fold change does the source give for “UniProt P14618 (peptide sequence: YRPRAPIIAVTR, peptide start residue: 444)” here?
Its log2 fold change is 0.781.

“UniProt P17024 (peptide sequence: SHTGEKPYECKQCGK, peptide start residue: 216)” was tested. Which log2 fold change did it give?
The log2 fold change was -0.775.

“FDXR (peptide sequence: CAFWGNVEVGR, peptide start residue: 105) (UniProt P22570)” was tested. Which log2 fold change did it give?
Its log2 fold change is 0.114.

For “GSPT1 (peptide sequence: MDDPTVNWSNERYEECKEK, peptide start residue: 222) (UniProt P15170)”, which log2 fold change is on record?
Its log2 fold change is 0.0782.

For “CSRP1 (peptide sequence: SCFLCMVCK, peptide start residue: 33) (UniProt P21291)”, which log2 fold change is on record?
Its log2 fold change is 0.28.

“PSMA1 (peptide sequence: LLCNFMR, peptide start residue: 83) (UniProt P25786)” was tested. Which log2 fold change did it give?
The log2 fold change was -0.0464.

For “RPA1 (peptide sequence: GDTNIKPILQVINIR, peptide start residue: 17) (UniProt P27694)”, which log2 fold change is on record?
Its log2 fold change is -0.699.

For “UniProt P17017 (peptide sequence: WEDQDIEDDHRNQGK, peptide start residue: 47)”, which log2 fold change is on record?
The log2 fold change was 0.459.

For “GATA1 (peptide sequence: LHQVNRPLTMR, peptide start residue: 288) (UniProt P15976)”, which log2 fold change is on record?
Its log2 fold change is -0.199.

How did the log2 fold change turn out when “JUP (peptide sequence: QEGLESVLK, peptide start residue: 386) (UniProt P14923)” was run?
The log2 fold change was -0.393.

Which log2 fold change does the source give for “XRCC1 (peptide sequence: WIYSCNEK, peptide start residue: 611) (UniProt P18887)” here?
Its log2 fold change is -0.122.

Which log2 fold change does the source give for “CBR1 (peptide sequence: FVEDTKK, peptide start residue: 175) (UniProt P16152)” here?
Its log2 fold change is 0.187.

With “UniProt P22532 (peptide sequence: YPPVTPSPPCQPKCPPKSK, peptide start residue: 54)” as the target, how does the log2 fold change read?
The log2 fold change was -0.34.

For “UBA1 (peptide sequence: NFPNAIEHTLQWAR, peptide start residue: 636) (UniProt P22314)”, which log2 fold change is on record?
The log2 fold change was 0.219.

How did the log2 fold change turn out when “SCP2 (peptide sequence: GSVLPNSDKK, peptide start residue: 483) (UniProt P22307)” was run?
Its log2 fold change is -0.195.

Which log2 fold change does the source give for “PRKACG (peptide sequence: KVEAPFIPK, peptide start residue: 310) (UniProt P22612)” here?
Its log2 fold change is 0.0557.

How did the log2 fold change turn out when “LIG1 (peptide sequence: NQEDNTGKYPDIISR, peptide start residue: 590) (UniProt P18858)” was run?
The log2 fold change was 0.332.

For “UniProt P19525 (peptide sequence: DGIISDIFDKKEK, peptide start residue: 500)”, which log2 fold change is on record?
Its log2 fold change is -0.328.

“LMNB1 (peptide sequence: EQHDAQVR, peptide start residue: 251) (UniProt P20700)” was tested. Which log2 fold change did it give?
The log2 fold change was -0.166.

Which log2 fold change does the source give for “FDPS (peptide sequence: LKEVLEYNAIGGKYNR, peptide start residue: 111) (UniProt P14324)” here?
Its log2 fold change is -0.189.

How did the log2 fold change turn out when “HNRNPL (peptide sequence: LCFSTAQHAS, peptide start residue: 580) (UniProt P14866)” was run?
Its log2 fold change is 0.0831.

How did the log2 fold change turn out when “NCK1 (peptide sequence: FDYVAQQEQELDIKKNER, peptide start residue: 11) (UniProt P16333)” was run?
Its log2 fold change is -0.787.

For “PGAM1 (peptide sequence: RSYDVPPPPMEPDHPFYSNISK, peptide start residue: 117) (UniProt P18669)”, which log2 fold change is on record?
The log2 fold change was 0.2.

For “UniProt P26639 (peptide sequence: CGPLIDLCR, peptide start residue: 254)”, which log2 fold change is on record?
Its log2 fold change is -0.279.

With “SPN (peptide sequence: QGSLAMEELK, peptide start residue: 353) (UniProt P16150)” as the target, how does the log2 fold change read?
Its log2 fold change is -0.0644.

With “GNS (peptide sequence: TIDPELLGK, peptide start residue: 494) (UniProt P15586)” as the target, how does the log2 fold change read?
The log2 fold change was 0.0741.

With “TCP1 (peptide sequence: DCLINAAK, peptide start residue: 146) (UniProt P17987)” as the target, how does the log2 fold change read?
Its log2 fold change is -0.1.

For “USF1 (peptide sequence: ACDYIQELR, peptide start residue: 247) (UniProt P22415)”, which log2 fold change is on record?
Its log2 fold change is 0.0901.

For “RPA2 (peptide sequence: QAVDFLSNEGHIYSTVDDDHFK, peptide start residue: 244) (UniProt P15927)”, which log2 fold change is on record?
The log2 fold change was 0.0943.

How did the log2 fold change turn out when “CD46 (peptide sequence: GTYLTDETHR, peptide start residue: 376) (UniProt P15529)” was run?
Its log2 fold change is -0.166.

“MCM3 (peptide sequence: GSSGVGLTAAVTTDQETGER, peptide start residue: 372) (UniProt P25205)” was tested. Which log2 fold change did it give?
The log2 fold change was 1.13.
